# Source: publication PMC10796917
# The chains behind the UniProt entries cited, without tags or fusion partners.
# UniProt Q07864: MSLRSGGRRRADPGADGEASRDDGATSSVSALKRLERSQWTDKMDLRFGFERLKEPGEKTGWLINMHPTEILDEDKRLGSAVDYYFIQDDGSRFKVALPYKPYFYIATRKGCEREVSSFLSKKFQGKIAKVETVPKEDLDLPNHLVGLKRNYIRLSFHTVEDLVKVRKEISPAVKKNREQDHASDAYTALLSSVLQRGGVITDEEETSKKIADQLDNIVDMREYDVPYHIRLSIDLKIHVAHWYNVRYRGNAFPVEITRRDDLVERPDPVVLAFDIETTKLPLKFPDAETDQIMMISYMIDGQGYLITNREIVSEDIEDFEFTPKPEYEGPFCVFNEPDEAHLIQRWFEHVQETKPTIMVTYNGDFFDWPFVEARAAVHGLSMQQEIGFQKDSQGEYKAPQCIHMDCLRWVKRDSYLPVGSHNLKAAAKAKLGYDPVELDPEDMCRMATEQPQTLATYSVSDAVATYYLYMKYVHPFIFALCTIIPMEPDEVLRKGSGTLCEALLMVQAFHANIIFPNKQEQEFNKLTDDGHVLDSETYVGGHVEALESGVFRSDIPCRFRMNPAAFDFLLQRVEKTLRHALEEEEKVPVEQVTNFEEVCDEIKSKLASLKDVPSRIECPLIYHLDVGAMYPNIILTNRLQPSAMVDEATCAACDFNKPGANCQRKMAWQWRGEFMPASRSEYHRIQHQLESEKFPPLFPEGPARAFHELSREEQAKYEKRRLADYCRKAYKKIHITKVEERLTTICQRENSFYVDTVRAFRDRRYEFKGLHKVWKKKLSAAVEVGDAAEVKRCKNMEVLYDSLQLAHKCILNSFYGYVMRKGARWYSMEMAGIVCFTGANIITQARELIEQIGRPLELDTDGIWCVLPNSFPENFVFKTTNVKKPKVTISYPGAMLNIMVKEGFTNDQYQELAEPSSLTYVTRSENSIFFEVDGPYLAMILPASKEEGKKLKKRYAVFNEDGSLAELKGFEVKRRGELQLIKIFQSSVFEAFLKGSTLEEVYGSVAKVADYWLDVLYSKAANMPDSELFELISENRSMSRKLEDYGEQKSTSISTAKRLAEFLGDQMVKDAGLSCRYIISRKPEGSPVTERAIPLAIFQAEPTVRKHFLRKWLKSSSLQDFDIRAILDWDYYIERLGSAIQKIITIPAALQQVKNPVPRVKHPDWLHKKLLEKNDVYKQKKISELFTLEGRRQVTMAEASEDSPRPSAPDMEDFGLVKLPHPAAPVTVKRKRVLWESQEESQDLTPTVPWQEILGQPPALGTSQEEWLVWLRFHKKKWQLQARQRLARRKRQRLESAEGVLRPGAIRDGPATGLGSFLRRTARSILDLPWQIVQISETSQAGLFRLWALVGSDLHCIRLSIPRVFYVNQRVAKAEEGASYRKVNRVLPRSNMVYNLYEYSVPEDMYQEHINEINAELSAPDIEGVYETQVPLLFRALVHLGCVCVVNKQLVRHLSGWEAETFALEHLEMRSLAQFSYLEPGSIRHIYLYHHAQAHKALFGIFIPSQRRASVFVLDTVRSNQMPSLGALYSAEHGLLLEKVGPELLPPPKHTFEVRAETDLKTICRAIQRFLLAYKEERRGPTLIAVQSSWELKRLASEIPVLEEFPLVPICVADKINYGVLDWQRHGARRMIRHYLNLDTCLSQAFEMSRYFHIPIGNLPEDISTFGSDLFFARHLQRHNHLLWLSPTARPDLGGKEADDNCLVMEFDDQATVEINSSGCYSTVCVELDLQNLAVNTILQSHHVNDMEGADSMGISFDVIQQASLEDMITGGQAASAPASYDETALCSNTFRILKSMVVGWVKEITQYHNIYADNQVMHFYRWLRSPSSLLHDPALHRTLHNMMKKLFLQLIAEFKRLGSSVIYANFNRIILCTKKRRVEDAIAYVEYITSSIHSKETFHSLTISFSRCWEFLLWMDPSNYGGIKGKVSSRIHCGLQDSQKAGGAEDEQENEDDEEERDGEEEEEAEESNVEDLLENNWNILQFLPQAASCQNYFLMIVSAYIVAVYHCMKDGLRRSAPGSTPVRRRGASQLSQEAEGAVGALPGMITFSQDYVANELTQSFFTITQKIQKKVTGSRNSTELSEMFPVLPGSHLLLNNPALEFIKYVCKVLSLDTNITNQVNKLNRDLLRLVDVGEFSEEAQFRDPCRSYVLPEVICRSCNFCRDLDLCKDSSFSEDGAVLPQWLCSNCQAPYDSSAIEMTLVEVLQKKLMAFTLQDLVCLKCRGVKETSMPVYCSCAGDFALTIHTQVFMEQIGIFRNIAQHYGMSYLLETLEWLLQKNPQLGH
# UniProt P09874: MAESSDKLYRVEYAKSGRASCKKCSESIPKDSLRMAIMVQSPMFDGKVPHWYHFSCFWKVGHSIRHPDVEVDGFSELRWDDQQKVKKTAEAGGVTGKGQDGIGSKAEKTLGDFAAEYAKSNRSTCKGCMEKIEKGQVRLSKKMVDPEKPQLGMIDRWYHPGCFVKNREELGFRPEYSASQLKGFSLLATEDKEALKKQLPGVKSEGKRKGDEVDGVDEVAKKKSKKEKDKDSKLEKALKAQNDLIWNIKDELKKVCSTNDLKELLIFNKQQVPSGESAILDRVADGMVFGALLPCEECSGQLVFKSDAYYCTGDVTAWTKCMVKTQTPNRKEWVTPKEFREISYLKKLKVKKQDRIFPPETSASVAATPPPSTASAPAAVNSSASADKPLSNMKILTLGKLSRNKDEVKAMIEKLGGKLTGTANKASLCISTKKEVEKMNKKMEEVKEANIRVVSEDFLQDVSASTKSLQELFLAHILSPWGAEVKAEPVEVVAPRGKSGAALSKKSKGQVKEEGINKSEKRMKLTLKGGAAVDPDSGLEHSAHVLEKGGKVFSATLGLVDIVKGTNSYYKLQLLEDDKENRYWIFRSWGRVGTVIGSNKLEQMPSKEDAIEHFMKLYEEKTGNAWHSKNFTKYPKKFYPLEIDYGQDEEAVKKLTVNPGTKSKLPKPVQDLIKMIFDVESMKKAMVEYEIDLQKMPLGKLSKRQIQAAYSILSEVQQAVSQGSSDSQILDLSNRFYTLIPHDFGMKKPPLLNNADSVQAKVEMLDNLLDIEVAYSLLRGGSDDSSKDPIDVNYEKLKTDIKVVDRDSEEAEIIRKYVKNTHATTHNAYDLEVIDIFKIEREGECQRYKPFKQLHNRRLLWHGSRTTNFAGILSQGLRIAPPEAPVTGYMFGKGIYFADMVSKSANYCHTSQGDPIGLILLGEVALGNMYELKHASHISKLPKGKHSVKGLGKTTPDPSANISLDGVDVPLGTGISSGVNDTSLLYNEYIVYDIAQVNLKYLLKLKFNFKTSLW
# UniProt Q92878: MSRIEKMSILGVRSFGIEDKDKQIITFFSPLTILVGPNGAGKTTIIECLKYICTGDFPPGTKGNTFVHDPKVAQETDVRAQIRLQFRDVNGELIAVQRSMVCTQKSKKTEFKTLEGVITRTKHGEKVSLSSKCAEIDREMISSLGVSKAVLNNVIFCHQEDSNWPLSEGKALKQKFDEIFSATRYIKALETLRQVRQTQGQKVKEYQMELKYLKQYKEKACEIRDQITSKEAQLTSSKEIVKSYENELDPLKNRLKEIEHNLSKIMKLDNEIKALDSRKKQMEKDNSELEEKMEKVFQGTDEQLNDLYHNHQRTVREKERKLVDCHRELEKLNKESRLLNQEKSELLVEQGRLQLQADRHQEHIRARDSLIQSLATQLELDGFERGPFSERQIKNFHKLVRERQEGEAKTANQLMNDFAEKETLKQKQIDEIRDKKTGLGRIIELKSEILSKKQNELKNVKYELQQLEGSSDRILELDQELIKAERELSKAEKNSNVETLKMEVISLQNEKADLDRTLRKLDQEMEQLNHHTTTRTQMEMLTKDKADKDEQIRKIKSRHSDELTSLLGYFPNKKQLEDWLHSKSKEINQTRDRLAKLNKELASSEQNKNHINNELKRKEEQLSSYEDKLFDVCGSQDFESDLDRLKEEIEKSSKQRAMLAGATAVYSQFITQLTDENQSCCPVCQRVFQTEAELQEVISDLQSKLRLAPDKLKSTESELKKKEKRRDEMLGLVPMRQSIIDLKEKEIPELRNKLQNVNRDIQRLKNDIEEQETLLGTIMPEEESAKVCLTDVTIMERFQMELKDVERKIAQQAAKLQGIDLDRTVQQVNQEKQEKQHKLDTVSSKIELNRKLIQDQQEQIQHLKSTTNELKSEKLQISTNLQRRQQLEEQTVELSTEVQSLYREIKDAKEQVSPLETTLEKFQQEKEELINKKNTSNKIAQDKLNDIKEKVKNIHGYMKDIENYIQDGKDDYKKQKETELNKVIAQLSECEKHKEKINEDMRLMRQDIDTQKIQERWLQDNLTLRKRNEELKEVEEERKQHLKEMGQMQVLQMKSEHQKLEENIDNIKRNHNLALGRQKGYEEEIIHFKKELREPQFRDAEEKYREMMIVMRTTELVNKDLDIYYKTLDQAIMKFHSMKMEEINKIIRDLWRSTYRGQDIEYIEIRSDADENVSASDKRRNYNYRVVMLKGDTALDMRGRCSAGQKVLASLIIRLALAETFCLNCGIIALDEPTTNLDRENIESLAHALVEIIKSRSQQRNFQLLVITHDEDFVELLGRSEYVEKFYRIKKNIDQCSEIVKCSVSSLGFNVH
# UniProt Q86WV6: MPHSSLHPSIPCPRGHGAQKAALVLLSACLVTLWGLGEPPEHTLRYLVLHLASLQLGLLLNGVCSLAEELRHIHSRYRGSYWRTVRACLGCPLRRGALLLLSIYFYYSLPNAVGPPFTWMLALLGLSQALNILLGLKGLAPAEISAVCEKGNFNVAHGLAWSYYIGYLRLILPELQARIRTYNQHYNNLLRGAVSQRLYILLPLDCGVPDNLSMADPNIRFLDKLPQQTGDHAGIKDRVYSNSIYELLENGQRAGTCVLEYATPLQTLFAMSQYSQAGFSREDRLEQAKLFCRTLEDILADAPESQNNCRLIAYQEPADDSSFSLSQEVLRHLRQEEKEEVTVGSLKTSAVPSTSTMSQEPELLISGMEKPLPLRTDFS
# No constants are given. Whether binding was seen depends on the method and setting. Binding seen in cells or lysates may run through a third protein. Some binding calls cover weakened binding; strength is not graded here.
# B1: p-TBK1 (protein, UniProt Q9UHD2 1-729)
# chain: MQSTSNHLWLLSDILGQGATANVFRGRHKKTGDLFAIKVFNNISFLRPVDVQMREFEVLKKLNHKNIVKLFAIEEETTTRHKVLIMEFCPCGSLYTVLEEPSNAYGLPESEFLIVLRDVVGGMNHLRENGIVHRDIKPGNIMRVIGEDGQSVYKLTDFGAARELEDDEQFVSLYGTEEYLHPDMYERAVLRKDHQKKYGATVDLWSIGVTFYHAATGSLPFRPFEGPRRNKEVMYKIITGKPSGAISGVQKAENGPIDWSGDMPVSCSLSRGLQVLLTPVLANILEADQEKCWGFDQFFAETSDILHRMVIHVFSLQQMTAHKIYIHSYNTATIFHELVYKQTKIISSNQELIYEGRRLVLEPGRLAQHFPKTTEENPIFVVSREPLNTIGLIYEKISLPKVHPRYDLDGDASMAKAITGVVCYACRIASTLLLYQELMRKGIRWLIELIKDDYNETVHKKTEVVITLDFCIRNIEKTVKVYEKLMKINLEAAELGEISDIHTKLLRLSSSQGTIETSLQDIDSRLSPGGSLADAWAHQEGTHPKDRNVEKLQVLLNCMTEIYYQFKKDKAERRLAYNEEQIHKFDKQKLYYHATKAMTHFTDECVKKYEAFLNKSEEWIRKMLHLRKQLLSLTNQCFDIEEEVSKYQEYTNELQETLPQKMFTASSGIKHTMTPIYPSSNTLVEMTLGMKKLKEEMEGVVKELAENNHILERFGSLTMDGGLRNVDCL
# modifications: phosphorylated (p-TBK1); site not given
# Target: DNA polymerase ε (POLE) (human (endogenous in human EC cells)) (UniProt Q07864)
# Assay: co-IP; cells lysed on ice 30 min and sonicated; supernatant incubated with specific antibodies and protein A/G agarose beads at 4 °C overnight; washed three times; western blotting; cells without or with etoposide treatment
row,binding,Molecule
1,binds,PARP1 (from UniProt P09874 1-1014)
2,binds,RAD50 (from UniProt Q92878 1-1312)
3,binds,p-STING (from UniProt Q86WV6 1-379)
4,binds,B1
